Measured values from patent US20240228568A1.
No constants are given. Whether binding was seen depends on the method and setting. Some entries that bind do so weakly or less than the wild type.

The chains behind the UniProt entries cited, without tags or fusion partners. Residues count along the entry.
UniProt Q13261, residues 31-205: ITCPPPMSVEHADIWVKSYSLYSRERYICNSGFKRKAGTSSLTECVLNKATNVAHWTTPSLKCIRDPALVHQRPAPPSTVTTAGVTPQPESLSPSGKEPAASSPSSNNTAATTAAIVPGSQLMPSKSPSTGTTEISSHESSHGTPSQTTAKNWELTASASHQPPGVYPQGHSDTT

Biological target: alpha subunit of the IL-15 receptor (IL-15Rα) (UniProt Q13261)
Assay: ELISA-type test, IL-15Rα immobilized on the plate

binding: binds
Binder: KVTAMKCFLL [Peptide 1]
